Measurements: publication doi:10.1101/2025.07.06.663161 (bioRxiv, 2025)
Numbering of substitutions follows the chain as printed. In names and notes the source's numbering stands. These are yes or no findings as the source states them, for the method shown. Some entries that bind do so weakly or less than the wild type. Tags and fused reporters may be left off the sequences shown.

B1: Recombinant wild-type Cdc19, Strep-tagged (SUMO tag cleaved off) (natural protein)
chain: MSRLERLTSLNVVAGSDLRRTSIIGTIGPKTNNPETLVALRKAGLNIVRMNFSHGSYEYHKSVIDNARKSEELYPGRPLAIALDTKGPEIRTGTTTNDVDYPIPPNHEMIFTTDDKYAKACDDKIMYVDYKNITKVISAGRIIYVDDGVLSFQVLEVVDDKTLKVKALNAGKICSHKGVNLPGTDVDLPALSEKDKEDLRFGVKNGVHMVFASFIRTANDVLTIREVLGEQGKDVKIIVKIENQQGVNNFDEILKVTDGVMVARGDLGIEIPAPEVLAVQKKLIAKSNLAGKPVICATQMLESMTYNPRPTRAEVSDVGNAILDGADCVMLSGETAKGNYPINAVTTMAETAVIAEQAIAYLPNYDDMRNCTPKPTSTTETVAASAVAAVFEQKAKAIIVLSTSGTTPRLVSKYRPNCPIILVTRCPRAARFSHLYRGVFPFVFEKEPVSDWTDDVEARINFGIEKAKEFGILKKGDTYVSIQGFKAGAGHSNTLQVSTV
B2: Recombinant phosphomimicking Cdc19-3E (S56E, S70E, S175E), Strep-tagged (SUMO tag cleaved off) (natural protein)
chain: B1 chain with S56E, S70E, S175E

How the values were obtained:
[1] = molecular target: GFP-tagged wild-type Cdc19 (pyruvate kinase Cdc19) (S. cerevisiae) (UniProt P00549); assay: semi-denaturing detergent agarose gel electrophoresis
[2] = molecular target: GFP-tagged phosphomimicking Cdc19-3E (S56E, S70E, S175E) (S. cerevisiae) (UniProt P00549); assay: SEC

| Binder | binding [1] | binding [2] |
| --- | --- | --- |
| B1 | binds |  |
| B2 |  | binds |
